Experimental findings from patent US4316890 (dated 1982) are described below.

The nature of the data set: general procedure: solution-phase peptide synthesis; dicyclohexylcarbodiimide / N-hydroxybenzotriazole; ONP active ester. The settings on record: coupling step.

* marks the point of attachment. Cbz = O=C(OCc1ccccc1)*; Boc = CC(C)(C)OC(=O)*

“Bmp(Trt)-Lys(Boc)-Asn-Phe-Phe-(D-Trp)-Lys(Boc)-Thr(But)-Phe-Thr(But)-Pro-Cys(Trt)-OBut” gave a step yield of 85%.
Turning to Cbz-K(Boc)NFF-OH, the step yield was found to be 88%.
